Experimental data published in paper PMC7897482.
No constants are given. Whether binding was seen depends on the method and setting. In cells and extracts the contact can be indirect. A yes stands for co-enrichment or nearness to the bait. Other partners may have been found. Where a sequence is shown, tags or fusion partners need not be part of it.

B1: endogenous SmD3 (S2 cells) (protein, UniProt O44437 1-151)
chain: MSIGVPIKVLHEAEGHIITCETITGEVYRGKLIEAEDNMNCQMTQITVTYRDGRTANLENVYIRGSKIRFLILPDMLKNAPMFKKQTGKGLGGTAGRGKAAILRAQARGRGRGGPPGGGRGTGGPPGAPGGSGGRGAWQGGPTGGRGRGGL
B2: Holn1 (wing imaginal discs) (protein, UniProt Q9VKV5 1-319)
chain: MASKRKHQASQKVKEESFKKHTLDSDEEDSDDYEREYLNDSDIEGGEEGVAKVEDDVKVTPFNMKEELEEGHFDKDGHYHWNKETEAKDNWLDNIDWVKIGTQKNAFDPAKDEENSSDEEKNEPVGKAFNLSMNLMKMVEFMKPGETVKMTLQRLGKQRPVLTTLQRIKQKKAGIVDPKTQEISQLTELANEILSKTGNMDIYQDTYESIKAKIADLPGTSKPKVADDIDMYADDFETKELERSKTSSSDSSKPTTTTSEVTWEFKWSQDETDIQGPFSTEKMLKWSQENYFKNGVYVRKCGENTNFYTSNRIDFDLYL

Legend:
[1] = molecular target: T1, Myc::Ecd^wt (Ecdysoneless, wild type) (Drosophila melanogaster) (UniProt Q9W032); assay: affinity purification with mass spectrometry; Myc::Ecd^wt or Myc::Ecd^Δ34 precipitated with an anti-Myc antibody from Drosophila S2 cell lysates; LC-MS/MS, four biological replicates; control: S2 cells not expressing Myc::Ecd^wt
T1 sequence: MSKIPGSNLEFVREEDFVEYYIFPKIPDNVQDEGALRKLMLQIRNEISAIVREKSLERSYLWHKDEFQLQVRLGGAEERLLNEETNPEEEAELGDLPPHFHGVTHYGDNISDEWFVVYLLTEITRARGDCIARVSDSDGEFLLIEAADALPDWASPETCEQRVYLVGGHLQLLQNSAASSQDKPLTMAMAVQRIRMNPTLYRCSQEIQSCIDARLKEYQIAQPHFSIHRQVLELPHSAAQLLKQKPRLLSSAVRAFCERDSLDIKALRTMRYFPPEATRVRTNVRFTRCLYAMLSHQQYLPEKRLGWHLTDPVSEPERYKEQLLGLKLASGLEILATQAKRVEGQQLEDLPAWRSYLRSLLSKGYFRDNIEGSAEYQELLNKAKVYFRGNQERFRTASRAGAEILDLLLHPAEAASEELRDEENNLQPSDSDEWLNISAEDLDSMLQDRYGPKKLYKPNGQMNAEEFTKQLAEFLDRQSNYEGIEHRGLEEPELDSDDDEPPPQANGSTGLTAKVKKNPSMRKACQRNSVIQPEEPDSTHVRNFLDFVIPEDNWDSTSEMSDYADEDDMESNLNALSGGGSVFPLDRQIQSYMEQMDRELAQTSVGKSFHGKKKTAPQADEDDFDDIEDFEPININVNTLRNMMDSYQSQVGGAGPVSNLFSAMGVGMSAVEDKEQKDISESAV

[2] = molecular target: T2, SmD3::HA (transgenic UAS-SmD3::3xHA) (Drosophila melanogaster) (UniProt O44437); assay: affinity purification with mass spectrometry; SmD3::HA precipitated with an HA-specific antibody from lysates of wing imaginal discs (nub>mRFP, SmD3::HA), wild type or with ecd RNAi; LC-MS/MS; control: nub>mRFP discs
T2 sequence: B1 chain

| Binder | binding [1] | binding [2] |
| --- | --- | --- |
| B1 | binds | – |
| B2 | – | binds |
